Test results as given in the supplement of paper PMC6078165.
The reference is the same well before dosing, and untreated signal decays as well.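 Fibroblast labels name human fibroblasts: mostly primary ones from tissues such as uterus (C12385, HUF), lung (H6013), bone (Hs27A), adrenal (HADF) and skin (WS1), plus mammary HMF and breast cancer-associated Hs343T. The cancer cells are basal-like or mesenchymal-like triple-negative breast cancer lines. The paper calls a changed response a hit when it shifts by more than 3x the replicate standard deviation. The tissue of the other fibroblasts is not given here.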

Test system: MDAMB468
Test: relative JC-1 red fluorescence (viability) vs pre-drug, coculture with fibroblast (fraction); higher = more viable cancer cells
Method: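 JC-1 labelled TNBC cells cocultured 1:1 (1,500 cells each) with CellTrace Violet stained primary or stromal fibroblasts in 384-well plates in FluoroBrite medium, treated with one of 42 anticancer drugs at 0.1, 1, 10 or 100 uM. JC-1 red fluorescence (mitochondrial integrity in cancer cells only) was read by plate reader every 8 h for 72 h. Values are normalised to each well's pre-drug value. The stock of one drug was tenfold lower, so its dose labels may be too high.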

CO[C@@]12[C@H](COC(N)=O)C3=C(C(=O)C(C)=C(N)C3=O)N1C[C@@H]1N[C@@H]12 [Mitomycin C]
relative JC-1 red fluorescence
Details	8 h	16 h	24 h	32 h	40 h	48 h	56 h	64 h	72 h
10 µM, coculture fibroblast: C12385	0.901	0.841	0.699	0.57	0.471	0.454	0.404	0.371	0.357
10 µM, coculture fibroblast: H6013	0.879	0.8002	0.693	0.616	0.533	0.521	0.475	0.446	0.381
10 µM, coculture fibroblast: H6019	0.841	0.7148	0.602	0.48	0.397	0.373	0.339	0.326	0.323
10 µM, coculture fibroblast: H6076	0.9434	0.9054	0.788	0.742	0.633	0.583	0.518	0.481	0.526
10 µM, coculture fibroblast: H6231	0.837	0.935	0.821	0.7401	0.618	0.583	0.502	0.474	0.457
10 µM, coculture fibroblast: HADF	0.865	0.804	0.706	0.648	0.567	0.552	0.50539	0.482	0.414
10 µM, coculture fibroblast: HCFa	0.877	0.769	0.676	0.585	0.484	0.469	0.424	0.396	0.333
10 µM, coculture fibroblast: HCPF	0.895	0.884	0.839	0.832	0.707	0.659	0.608	0.592	0.591
10 µM, coculture fibroblast: HHSteC	0.893	0.819	0.742	0.673	0.5967	0.601	0.528	0.496	0.429
10 µM, coculture fibroblast: HMF	0.826	0.902	0.792	0.722	0.579	0.51	0.455	0.428	0.422
10 µM, coculture fibroblast: HPFa	0.953	0.903	0.877	0.773	0.728	0.747	0.668	0.657	0.579
10 µM, coculture fibroblast: HUF	0.908	0.8115	0.675	0.524	0.449	0.425	0.374	0.357	0.342
10 µM, coculture fibroblast: Hs5	0.811	0.881	0.818	0.705	0.581	0.522	0.488	0.453	0.484
10 µM, coculture fibroblast: Hs27A	0.823	0.749	0.66189	0.6146	0.5696	0.566	0.519	0.498	0.425
10 µM, coculture fibroblast: Hs343T	0.887	0.94	0.7928	0.715	0.568	0.517	0.441	0.413	0.401
10 µM, coculture fibroblast: WS1	0.8961	0.765	0.681	0.591	0.495	0.462	0.422	0.4	0.389
100 µM, coculture fibroblast: C12385	0.691	0.681	0.658	0.621	0.594	0.608	0.586	0.581	0.577
100 µM, coculture fibroblast: H6013	0.643	0.613	0.5861	0.548	0.566	0.5652	0.5411	0.5316	0.474
100 µM, coculture fibroblast: H6019	0.624	0.579	0.543	0.499	0.468	0.467	0.437	0.432	0.426
100 µM, coculture fibroblast: H6076	0.757	0.641	0.617	0.625	0.559	0.572	0.558	0.561	0.596
100 µM, coculture fibroblast: H6231	0.656	0.634	0.6	0.64	0.539	0.539	0.517	0.513	0.53
100 µM, coculture fibroblast: HADF	0.698	0.716	0.678	0.653	0.664	0.668	0.646	0.645	0.5632
100 µM, coculture fibroblast: HCFa	0.689	0.6508	0.6185	0.60058	0.6132	0.6225	0.6046	0.5959	0.5341
100 µM, coculture fibroblast: HCPF	0.741	0.639	0.618	0.658	0.577	0.563	0.543	0.54	0.554
100 µM, coculture fibroblast: HHSteC	0.698	0.6962	0.683	0.637	0.651	0.654	0.607	0.595	0.537
100 µM, coculture fibroblast: HMF	0.734	0.639	0.622	0.635	0.555	0.55	0.544	0.546	0.571
100 µM, coculture fibroblast: HPFa	0.645	0.618	0.586	0.526	0.549	0.556	0.52	0.519	0.464
100 µM, coculture fibroblast: HUF	0.6868	0.621	0.5885	0.5459	0.5186	0.524	0.492	0.499	0.489
100 µM, coculture fibroblast: Hs5	0.801	0.6908	0.686	0.685	0.62	0.6	0.594	0.576	0.608
100 µM, coculture fibroblast: Hs27A	0.632	0.676	0.6283	0.6143	0.62386	0.6285	0.6092	0.6039	0.529
100 µM, coculture fibroblast: Hs343T	0.725	0.612	0.584	0.59	0.508	0.506	0.498	0.499	0.518
100 µM, coculture fibroblast: WS1	0.62172	0.565	0.5339	0.4911	0.4697	0.465	0.4485	0.454	0.446
